Results are given in words; binding and its absence hold for the method and conditions named. For some assays here: Tags and fused reporters may be left off the sequences shown.
T1: GST-Mint1 MID (residues 222-314) (human) (UniProt Q02410)
T1 sequence: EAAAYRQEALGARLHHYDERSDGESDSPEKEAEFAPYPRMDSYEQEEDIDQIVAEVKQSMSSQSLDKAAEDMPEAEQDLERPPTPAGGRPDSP


What was measured:
[1] = biological target: T1, GST-Mint1 MID (residues 222-314) (human)
[2] = biological target: Munc18-1-His (rat) (UniProt P61765)

binding [1] | binding [2] | Binder
no binding |  | Munc18-3 (protein, UniProt Q60770 1-592) MAPPVSERGLKSVVWRKIKTAVFDDCRKEGEWKIMLLDEFTTKLLSSCCKMTDLLEEGITVIENIYKNREPVRQMKALYFISPTPKSVDCFLRDFGSKSEKKYKAAYIYFTDFCPDSLFNKIKASCSKSIRRCKEINISFIPQESQVYTLDVPDAFYYCYSPDPSNASRKEVVMEAMAEQIVTVCATLDENPGVRYKSKPLDNASKLAQLVEKKLEDYYKIDEKGLIKGKTQSQLLIIDRGFDPVSTVLHELTFQAMAYDLLPIENDTYKYKTDGKEKEAVLEEDDDLWVRVRHRHIAVVLEEIPKLMKEISSTKKATEGKTSLSALTQLMKKMPHFRKQISKQVVHLNLAEDCMNKFKLNIEKLCKTEQDLALGTDAEGQRVKDSMLVLLPVLLNKNHDNCDKIRAVLLYIFGINGTTEENLDRLIHNVKIEDDSDMIRNWSHLGVPIVPPSQQAKPLRKDRSAEETFQLSRWTPFIKDIMEDAIDNRLDSKEWPYCSRCPAVWNGSGAVSARQKPRTNYLELDRKNGSRLIIFVIGGITYSEMRCAYEVSQAHKSCEVIIGSTHILTPRKLLDDIKMLNKSKDKVSFKDE
 | no binding | MDSYEQEEDIDQIVAE [Mint1_9 peptide (261-276)]

The remaining lines, values behind:

Binder | binding [1] | binding [2]
MDSYEQEEDIDQIVAEVK [Mint1_8 peptide (261-278)] |  | no binding
IVAEVKQSMS [Mint1_1a peptide (273-282)] |  | no binding
MDSYEQEEDIDQ [Mint1_1b peptide (261-272)] |  | no binding

— article PMC10820826, “Interrogation and validation of the interactome of neuronal Munc18-interacting Mint proteins with AlphaFold2” (The Journal of Biological Chemistry, 2023)
